Earlier results, collected in patent publication US20250170131A1, “METHOD FOR THE TREATMENT OF ANTERIOR ISCHEMIC OPTIC NEUROPATHY” (Nicox SA, priority 2022, published 2025).
At least one structure is not confirmed: it was looked up by name or label, or the drawing left a doubt.

Legend:
[1] = tested on: blood flow in retinochoroid; details: EP 0 968 716; cited from earlier work
[2] = tested on: murine models of POAG and PACG; details: two murine models, Neurobiology of Disease 121 (2019); cited from earlier work

SMILES	Effect on retinochoroid blood flow (in words) [1]	Effect on IOP-induced RGC degeneration (in words) [2]
COC(=O)C1=C(C)NC(C)=C(C(=O)OCCN(C)Cc2ccccc2)C1c1cccc([N+](=O)[O-])c1 (centres unmarked) [Nicardipine]	has a blood flow increasing action in retinochoroid	
CN1CC(=O)N2[C@H](c3ccc4c(c3)OCO4)c3[nH]c4ccccc4c3C[C@@H]2C1=O [Tadalafil]		prevented IOP-induced degeneration of retinal ganglion cells (RGCs)
